Reference: US20110117093A1 (published 2011)
These are yes or no findings as the source states them, for the method shown. Some binding calls cover weakened binding; strength is not graded here.

By UniProt entry, the sequences of proteins in these tests, tags left out. Where a name states a change or a piece, a line headed by the entry shows the natural chain unless it says otherwise.
UniProt Q9Y275: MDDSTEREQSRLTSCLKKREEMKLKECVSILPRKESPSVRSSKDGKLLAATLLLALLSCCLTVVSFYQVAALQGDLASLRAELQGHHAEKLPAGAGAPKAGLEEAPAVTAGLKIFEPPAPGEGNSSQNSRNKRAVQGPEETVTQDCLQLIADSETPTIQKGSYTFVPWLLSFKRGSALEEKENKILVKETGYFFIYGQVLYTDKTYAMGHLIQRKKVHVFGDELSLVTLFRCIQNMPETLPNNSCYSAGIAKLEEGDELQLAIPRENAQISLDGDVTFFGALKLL

Key:
phage ELISA = substrate: B Lymphocyte Stimulator, human, soluble form (human) (UniProt Q9Y275); experiment: phage ELISA
[1] = target: biotinylated B Lymphocyte Stimulator (soluble form) (human) (UniProt Q9Y275); experiment: phage scFv, IM9 receptor binding inhibition
[2] = target: biotinylated B Lymphocyte Stimulator (soluble form) (human) (UniProt Q9Y275); experiment: purified scFv, IM9 receptor binding inhibition

Measured: binding

B1: I067B10 (scFv)
scFv: QMQLVQSGAEVKKPGASVKVSCKASGYTFTSYYMHWVRQAPGQGLEWMGWINAGNSNTKYSQKFQGRVTITSDTSASTAYMELSGLRSEDTAVYYCARDRGAPNYDILTGYYAPAQGVAFDIWGKGTLATVSSGGGGSGGGGSGGGGSQSVLTQPPSVSAAPGQKVTISCSGSTSNIGNNYVSWYQQHPGKAPKLMIYDVSKRPSGVPDRFSGSKSGNSASLDISGLQSEDEADYYCAAWDDSLSEFLFGTGTKLTVLG
binds: phage ELISA | [1] | [2]
